Test results from publication PMC8933431.
No constants are given. Whether binding was seen depends on the method and setting.

Protein sequences, listed by entry. Tags and fused reporters are not part of them. Residues count along the entry.
UniProt P02769, residues 25-607: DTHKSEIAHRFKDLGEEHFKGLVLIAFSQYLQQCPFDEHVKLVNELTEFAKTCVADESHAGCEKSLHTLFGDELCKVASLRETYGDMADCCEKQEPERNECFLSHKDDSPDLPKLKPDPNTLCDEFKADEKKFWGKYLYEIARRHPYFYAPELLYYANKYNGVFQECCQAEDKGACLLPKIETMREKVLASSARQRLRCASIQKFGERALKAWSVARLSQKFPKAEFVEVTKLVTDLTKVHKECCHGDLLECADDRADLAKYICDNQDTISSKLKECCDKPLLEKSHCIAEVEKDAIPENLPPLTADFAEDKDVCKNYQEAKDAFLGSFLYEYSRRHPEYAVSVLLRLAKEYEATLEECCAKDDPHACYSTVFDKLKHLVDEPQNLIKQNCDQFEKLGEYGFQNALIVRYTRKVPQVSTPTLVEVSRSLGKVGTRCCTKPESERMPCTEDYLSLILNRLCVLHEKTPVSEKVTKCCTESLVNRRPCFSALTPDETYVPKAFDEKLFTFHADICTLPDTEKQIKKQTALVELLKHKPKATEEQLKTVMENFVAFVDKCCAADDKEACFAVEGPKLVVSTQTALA

How the values were obtained:
[1] = molecular target: bovine serum albumin (bovine) (UniProt P02769); assay: cross-linking; BSA 1 mg/mL in >4 M urea or >1 M GdnHCl for 1 h at room temperature, then DOPA2 (0.17 mM) or DSS (0.5 mM); SDS-PAGE; both purified
[2] = molecular target: bovine serum albumin (bovine) (UniProt P02769); assay: cross-linking; BSA 1 mg/mL in citric acid-Na2HPO4 buffer pH 3.0, DOPA2 (0.17 mM) or DSS (0.5 mM) for 10 s; SDS-PAGE; both purified

In the case of “bovine serum albumin (from UniProt P02769 25-607)”, the binding [1] is reported as “no binding (condition: >4 M urea or >1 M GdnHCl)” and the binding [2] is reported as “no binding (condition: pH 3.0)”.
